The whole screen tested about 390,000 compounds, of which about 4,000 (1%) were called active. Inconclusive results, whose numbers are uncertain, are shown with a selection of clear calls. The call rests on the fitted dose curve; in most records, active means well fitted inhibition curve with a large enough effect; inconclusive means small, poorly fitted or top-dose-only effect, or another doubt; inactive means no such curve, though single readings can be large or run the other way. Potencies of inconclusive entries are doubtful fits and often do not repeat.
biological target: DNA polymerase iota (Homo sapiens) (UniProt Q9UNA4); assay: qHTS for Inhibitors of Polymerase Iota; conditions: Pol iota fluorescent replication assay, 10 min; series mostly up to 115 µM; activity, negative = inhibition: at the top concentration
Procedure, shortened: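 Pol iota at 10 nM preincubated 15 min with compounds at room temperature; reaction started with fluorescent substrate, 50 nM final. Fluorescence read kinetically at 0 and 10 min; buffer-only wells as negative control.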
Potency means the concentration at half of the fitted maximal effect.

Amino acid sequences for entries named in this document (tags omitted). A change or cut given only in a name is not applied to a line headed by its entry.
UniProt Q9UNA4: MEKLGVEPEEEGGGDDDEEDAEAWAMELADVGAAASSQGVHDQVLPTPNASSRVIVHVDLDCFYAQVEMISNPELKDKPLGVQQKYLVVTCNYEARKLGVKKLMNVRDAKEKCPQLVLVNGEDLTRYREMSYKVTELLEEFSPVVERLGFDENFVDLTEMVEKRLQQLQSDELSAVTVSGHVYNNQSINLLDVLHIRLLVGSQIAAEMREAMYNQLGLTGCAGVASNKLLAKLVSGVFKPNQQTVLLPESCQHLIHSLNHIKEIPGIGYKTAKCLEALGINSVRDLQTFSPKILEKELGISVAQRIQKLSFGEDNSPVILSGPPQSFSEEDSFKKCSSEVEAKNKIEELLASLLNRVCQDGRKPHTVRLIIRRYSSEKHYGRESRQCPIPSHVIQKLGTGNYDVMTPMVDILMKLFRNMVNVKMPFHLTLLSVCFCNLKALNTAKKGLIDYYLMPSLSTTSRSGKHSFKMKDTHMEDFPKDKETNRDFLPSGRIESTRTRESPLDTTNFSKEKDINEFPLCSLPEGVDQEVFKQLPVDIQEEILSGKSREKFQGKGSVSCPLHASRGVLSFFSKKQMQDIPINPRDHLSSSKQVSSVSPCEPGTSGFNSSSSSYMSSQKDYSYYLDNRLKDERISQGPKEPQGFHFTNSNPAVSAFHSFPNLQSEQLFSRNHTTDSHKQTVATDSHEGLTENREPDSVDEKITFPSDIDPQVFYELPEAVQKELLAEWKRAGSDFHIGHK

Compound	Potency	activity, negative = inhibition
O=C(Nc1cccc(NC(=O)c2ccccc2Cl)c1)c1ccc([N+](=O)[O-])o1	inconclusive: 39.8 µM [inhibitor, partial curve]	–
COc1ccc(/C(O)=C2/C(=O)C(=O)N(c3nc(C)c(C)s3)C2c2ccco2)cc1 (stereo not given)	inconclusive: 12.6 µM [inhibitor, full curve, poor fit]	–
CC(=O)Nc1cccc(C(=O)/C=C/c2ccc(Br)cc2)c1	inconclusive: 35.5 µM [inhibitor, full curve]	–
COc1ccc(NC(=O)Cn2nc(C)c3c(C)n(-c4ccccc4)nc3c2=O)cc1OC	inconclusive: 50.1 µM [inhibitor, partial curve]	–
CCOC(=O)CN1C(=O)S/C(=C/c2cccc([N+](=O)[O-])c2O)C1=O	–	inactive: 3.79%
CNc1ccccc1-n1ccc(-c2ccccc2)n1	inconclusive: 35.5 µM [inhibitor, single point]	–
CN(Cc1ccccc1)C(=O)c1c[nH]c2ccc(S(=O)(=O)Nc3ccccc3F)cc2c1=O	–	inactive: -31.6%
COc1ccccc1NC(=O)C(=N\O)/C(C)=N/O	inconclusive: 112 µM [inhibitor, partial curve, poor fit]	–
COc1ccc(CNc2nc(-c3ccccc3)nn2C(=O)c2ccccc2OC)cc1	inconclusive: 89.1 µM [inhibitor, single point]	–
COc1cc(Cl)c(S(=O)(=O)N2CCN(c3c(C)cccc3C)CC2)cc1Cl	–	inactive: 4.5%
Cc1ccc(S(=O)(=O)/N=C2/NC(=O)/C(=C\c3ccco3)S2)cc1	–	inactive: -5%
COc1cccc(CCNC(=O)c2cnc3sc(N4CCCC4)nn3c2=O)c1	–	inactive: 25.2%
COc1ccc(-n2c(=O)c3c(c4cc(OC)ccc4n3C)n(Cc3c(F)cccc3Cl)c2=O)cc1	–	inactive: 21.3%
C/C(=N\OCc1nc2ccccc2c(=O)n1/N=C/c1cc(C)cc([N+](=O)[O-])c1O)c1ccccc1	–	inactive: 7.2%
CC1=NN(c2ccccc2)C(=O)C1N=Nc1ccc(N)cc1 (stereo not given)	inconclusive: 11.2 µM [inhibitor, single point]	–
CC1(C)OC(c2ccccc2)=C/C(=C/C=Nc2ccccc2)O1	inconclusive: 31.6 µM [inhibitor, single point]	–
Cc1ccc(CNC(=O)CCN2C(=O)C(C)Oc3ccc(C)cc32)cc1 (stereo not given)	inconclusive: 20 µM [inhibitor, partial curve, poor fit]	–
O=C(CCC1N=C2c3ccccc3N=C(SCc3cccc(Cl)c3)N2C1=O)NCc1ccco1 (stereo not given)	inconclusive: 39.8 µM [inhibitor, single point]	–
COc1cccc(C(=O)O[C@H]2[C@H](C)NS(=O)(=O)[C@H]3C[C@@H]4C=C[C@]23O4)c1	inconclusive: 0.891 µM [inhibitor, full curve, poor fit]	–
COc1ccc(OC)c(S(=O)(=O)NCCc2sc(C)nc2C)c1	–	inactive: 14.8%
Cc1ccc(NC(=O)c2ccc(Cl)c(S(=O)(=O)N3CCc4ccccc43)c2)nc1	inconclusive: 70.8 µM [inhibitor, partial curve, poor fit]	–
O=Cc1cc(CCC(=O)O)ccc1O	inconclusive: 44.7 µM [inhibitor, partial curve, poor fit]	–

Taken from the entries so far (18 entries):
Compound	Potency	activity, negative = inhibition
O=C(Nc1cccc(NC(=O)c2ccccc2Cl)c1)c1ccc([N+](=O)[O-])o1	inconclusive: 39.8 µM [inhibitor, partial curve]	–
COc1ccc(/C(O)=C2/C(=O)C(=O)N(c3nc(C)c(C)s3)C2c2ccco2)cc1 (stereo not given)	inconclusive: 12.6 µM [inhibitor, full curve, poor fit]	–
CC(=O)Nc1cccc(C(=O)/C=C/c2ccc(Br)cc2)c1	inconclusive: 35.5 µM [inhibitor, full curve]	–
COc1ccc(NC(=O)Cn2nc(C)c3c(C)n(-c4ccccc4)nc3c2=O)cc1OC	inconclusive: 50.1 µM [inhibitor, partial curve]	–
CCOC(=O)CN1C(=O)S/C(=C/c2cccc([N+](=O)[O-])c2O)C1=O	–	inactive: 3.79%
CNc1ccccc1-n1ccc(-c2ccccc2)n1	inconclusive: 35.5 µM [inhibitor, single point]	–
CN(Cc1ccccc1)C(=O)c1c[nH]c2ccc(S(=O)(=O)Nc3ccccc3F)cc2c1=O	–	inactive: -31.6%
COc1ccccc1NC(=O)C(=N\O)/C(C)=N/O	inconclusive: 112 µM [inhibitor, partial curve, poor fit]	–
COc1ccc(CNc2nc(-c3ccccc3)nn2C(=O)c2ccccc2OC)cc1	inconclusive: 89.1 µM [inhibitor, single point]	–
COc1cc(Cl)c(S(=O)(=O)N2CCN(c3c(C)cccc3C)CC2)cc1Cl	–	inactive: 4.5%
Cc1ccc(S(=O)(=O)/N=C2/NC(=O)/C(=C\c3ccco3)S2)cc1	–	inactive: -5%
COc1cccc(CCNC(=O)c2cnc3sc(N4CCCC4)nn3c2=O)c1	–	inactive: 25.2%
COc1ccc(-n2c(=O)c3c(c4cc(OC)ccc4n3C)n(Cc3c(F)cccc3Cl)c2=O)cc1	–	inactive: 21.3%
C/C(=N\OCc1nc2ccccc2c(=O)n1/N=C/c1cc(C)cc([N+](=O)[O-])c1O)c1ccccc1	–	inactive: 7.2%
CC1=NN(c2ccccc2)C(=O)C1N=Nc1ccc(N)cc1 (stereo not given)	inconclusive: 11.2 µM [inhibitor, single point]	–
CC1(C)OC(c2ccccc2)=C/C(=C/C=Nc2ccccc2)O1	inconclusive: 31.6 µM [inhibitor, single point]	–
Cc1ccc(CNC(=O)CCN2C(=O)C(C)Oc3ccc(C)cc32)cc1 (stereo not given)	inconclusive: 20 µM [inhibitor, partial curve, poor fit]	–
O=C(CCC1N=C2c3ccccc3N=C(SCc3cccc(Cl)c3)N2C1=O)NCc1ccco1 (stereo not given)	inconclusive: 39.8 µM [inhibitor, single point]	–

(more compounds)

Compound	Potency	activity, negative = inhibition
Cc1c(CCOC(=O)c2cc([N+](=O)[O-])ccc2Cl)sc[n+]1CCCCS(=O)(=O)[O-]	inconclusive: 89.1 µM [inhibitor, single point]	–
Cn1cnnc1SCC(=O)Nc1c(F)cc(F)cc1Br	inconclusive: 31.6 µM [inhibitor, single point]	–
CCC(=O)c1ccc(OCC(O)CN(CCc2ccccc2)Cc2ccccc2)cc1 (stereo not given)	inconclusive: 89.1 µM [inhibitor, partial curve, poor fit]	–
CC(C)C(=O)N/N=C/c1ccc(OCc2ccccc2)cc1	–	inactive: 11%
O=C(NCc1ccncc1)C(=O)N/N=C/c1ccc(OCc2ccccc2)cc1	inconclusive: 12.6 µM [inhibitor, partial curve, poor fit]	–
O=c1oc2ccc3ccccc3c2cc1-c1nc2c(s1)CCc1ccccc1-2	inconclusive: 100 µM [inhibitor, single point]	–
Clc1ccc(Nc2ncnc3ccc(Br)cc23)cc1	inconclusive: 89.1 µM [inhibitor, partial curve]	–
CCCC(c1nnnn1CS(=O)(=O)c1ccc(C)cc1)N1CCN(C2CCCC2)CC1 (stereo not given)	inconclusive: 35.5 µM [inhibitor, single point]	–
O=C(CSc1ccc(F)cc1)Nc1ccc(C2SCCS2)cc1	inconclusive: 56.2 µM [inhibitor, partial curve, poor fit]	–
CC(OC(=O)c1cccs1)C(=O)NCC1CCCO1 (stereo not given)	inconclusive: 39.8 µM [inhibitor, single point]	–
COc1ccc2nc(Cl)cc(Cl)c2c1	–	inactive: 23.4%
CCOc1cc(/C=C2\C(=O)N(c3ccc(C(N)=O)cc3)N=C2C)ccc1OC(=O)c1cccs1	inconclusive: 0.891 µM [inhibitor, full curve, poor fit]	–
Cc1cc(NC(=O)c2ccccc2F)n(C(C)(C)C)n1	inconclusive: 89.1 µM [inhibitor, single point]	–
O=C(Nc1ccc(F)cc1)c1ncn(-c2ccccc2)n1	–	inactive: 37%
CN1c2cccc3cccc(c23)N(C)C1c1cccs1	inconclusive: 17.8 µM [inhibitor, partial curve, poor fit]	–
CC[C@]1(C(=O)OC)[C@H]2C(=O)N(Cc3ccccc3)C(=O)[C@H]2[C@H]2CN(C)C(=NC)N21	inconclusive: 39.8 µM [inhibitor, single point]	–
c1ccc2[nH]c3cc4ncnc4cc3nc2c1	inconclusive: 31.6 µM [inhibitor, partial curve, poor fit]	–
CCOC(=O)c1c(-c2ccc(C)o2)csc1NC(=S)NC(=O)c1ccccc1Br	inconclusive: 14.1 µM [inhibitor, partial curve, poor fit]	–
COCCN(C(=O)COC(=O)/C=C/c1ccc(C)o1)c1c(N)n(Cc2ccccc2)c(=O)[nH]c1=O	active: 79.4 µM	–
c1ccc(-c2nc(NCc3ccco3)c3ccccc3n2)nc1	inconclusive: 35.5 µM [inhibitor, single point]	–
COCCN=C1NN=C(c2ccc(C)c([N+](=O)[O-])c2)CS1	inconclusive: 11.2 µM [inhibitor, partial curve, poor fit]	–
O=C(COC(=O)c1cnccn1)Nc1ccc2c(c1)OCO2	inconclusive: 17.8 µM [inhibitor, partial curve, poor fit]	–

Compound	Potency	activity, negative = inhibition
Cc1ccc(OCC(=O)Nc2nnc(S(=O)(=O)N3CCC(C)CC3)s2)cc1	inconclusive: 12.6 µM [inhibitor, full curve, poor fit]	–
CCOC(=O)c1ccc(S(=O)(=O)N2CCN(Cc3cc4c(cc3O)OCO4)CC2)cc1	–	inactive: -4.62%
O=C(CN1CCN(Cc2ccccc2Cl)CC1)N/N=C/c1ccccn1	inconclusive: 39.8 µM [inhibitor, single point]	–
Cn1cccc1-c1nc2ccc(NC(=O)c3ccc([N+](=O)[O-])cc3)cc2[nH]1	inconclusive: 89.1 µM [inhibitor, partial curve, poor fit]	–
CCOC(=O)C(=O)NCC(c1ccco1)S(=O)(=O)c1cccs1 (stereo not given)	inconclusive: 39.8 µM [inhibitor, partial curve]	–
CCC(=O)OCCn1c(=O)c2cc3c(=O)n(CCOC(=O)CC)c(=O)c3cc2c1=O	–	inactive: 13.4%
CN1CCc2nc(SCC(=O)Nc3cccc(F)c3)c(C#N)c(-c3cccs3)c2C1	–	inactive: 34.3%
O=C(NCCC1=CCCCC1)c1coc(=O)c(Br)c1	inconclusive: 35.5 µM [inhibitor, single point]	–
O=c1n(Cc2ccc([N+](=O)[O-])cc2)c2ccccc2c2nc(-c3ccccc3)nn12	inconclusive: 100 µM [inhibitor, partial curve, poor fit]	–
O=[N+]([O-])c1ccccc1S(=O)(=O)NCCSCc1ccco1	inconclusive: 89.1 µM [inhibitor, single point]	–
Cc1cccc(/N=C/c2c(O)cc(C)oc2=O)n1	inconclusive: 39.8 µM [inhibitor, single point]	–
Cc1cc(C)cc(-n2c(SCC(=O)Nc3ccccc3F)nc3c(oc4ccccc43)c2=O)c1	–	inactive: 16.5%
Cc1ccc(C(=O)N2CCc3cc(CNC(=O)c4ccccc4F)ccc32)cc1	–	inactive: -13.2%
CC1=NN(c2cccc(C(=O)O)c2)C(=O)/C1=C\C=C/c1ccccc1	inconclusive: 7.08 µM [inhibitor, partial curve, poor fit]	–
CC(C)(C)N(NC(=O)OCc1ccccc1)C(=O)c1ccccc1Cl	inconclusive: 89.1 µM [inhibitor, single point]	–
Cc1nc(NC(=O)c2ccco2)sc1-c1csc(Nc2ccc(Cl)cc2Cl)n1	inconclusive: 50.1 µM [inhibitor, partial curve, poor fit]	–
COc1cc(/C=N/NC(N)=O)cc([N+](=O)[O-])c1O	–	inactive: 13.4%
COc1ccc(C(=O)NNC(=O)Cc2coc3cc(OC)ccc23)cc1	inconclusive: 28.2 µM [inhibitor, full curve]	–
Cc1ccc(CNC(=O)C(=O)NCC(c2cccs2)S(=O)(=O)c2ccccc2)cc1 (stereo not given)	inconclusive: 89.1 µM [inhibitor, partial curve, poor fit]	–
Cc1cc(C(=O)COC(=O)c2n[nH]c(=O)c3ccccc23)c(C)n1C	inconclusive: 56.2 µM [inhibitor, single point]	–
CC(=O)c1ccc(COC(=O)Cc2ccc([N+](=O)[O-])cc2)cc1	inconclusive: 89.1 µM [inhibitor, single point]	–
